# Source: patent US20040219615A1
# Target: lamin
# Experiment: yeast two-hybrid test
binder,measurement,value
"clone #84 (protein, UniProt Q99675 1-332, looked up) MAAVFLVTLYEYSPLFYIAVVFTCFIVTTGLVLGWFGWDVPVILRNSEETQFSTRVFKKQMRQVKNPFGLEITNPSSASITTGITLTTDCLEDSLLTCYWGCSVQKLYEALQKHVYCFRISTPQALEDALYSEYLYQEQYFIKKDSKEEIYCQLPRDTKIEDFGTVPRSRYPLVALLTLADEDDREIYDIISMVSVIHIPDRTYKLSCRILYQYLLLAQGQFHDLKQLFMSANNNFTPSNNSSSEEKNTDRSLLEKVGLSESEVEPSEENSKDCVVCQNGTVNWVLLPCRHTCLCDGCVKYFQQCPMCRQFVQESFALCSQKEQDKDKPKTL",binding,no binding

# These are yes or no findings as the source states them, for the method shown.
